Test results reported in publication PMC2329594, “A Minimal Fragment of MUC1 Mediates Growth of Cancer Cells” (PLoS ONE, 2008).

Molecular target: T1, Irrelevant peptide (SPR control surface)
T1 sequence (peptide): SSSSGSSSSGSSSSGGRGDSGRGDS
Assay: SPR; Biacore3000; His-tagged peptides on NTA-Ni SAM chips; 35 uL plugs of NM23 at 5 uL/minute; bovine NM23 in PBS, recombinant human NM23 in PBS with 15 mM imidazole; control peptide on a second flow channel; 1:1 Langmuir model; both purified

binding | Substance
no binding | Recombinant human NM23
no binding | NM23 purified from bovine liver

These are yes or no findings as the source states them, for the method shown.
